Assay results published in PMC10163288.
This is one part of the list.

B1: il2ra_site2_2erj_sap_23_mot_HHH_b1_06697_000000025_0001_41_54_H_._HHH_b2_07665_0001_0000100002_0000001_0_0001 (protein)
chain: SSSSDELEELQEELRELVKENDPHRAVEVVTEAFEIAREEDDPELHRIAWEMLRLLASLQSSSSS
B2: il2ra_site2_3nfp_normal_mot_HHH_b2_00444_000000178_0001_41_57_H_._HHH_b1_08207_0001_0001000029_0000001_0_af2pred_0001_af2pred (protein)
chain: SSSSDEELEVFALAVVIDLLEEYGLDDEQALRLSRLAWQLAEEGFSEEEIEEILRKVAEELSSSS
B3: il2ra_site1_3nfp_sap_14_mot_HHH_b1_07180_af2_000000260_0001_1_19_H_._HHH_b2_00258_0001_0000300036_0000001_0_0001 (protein)
chain: SSSSSEEADRIYELMRAMIEAQKRGDDELVEELLREVAELAEERGDERLLRQVQWALRALKSSSS
B4: il2ra_site1_2b5i_sap_15_mot_1dae16775e8f4074d71d019417416b97_0001_af2_000000275_0001_1_12_H_._HHH_b2_07869_0001_0000400013_0000001_1_0001_af2pred_0001_af2pred_1 (protein)
chain: SSSSTDVAREVFRLLEEADRLARNGNPEEAEKLLREAEELAEENGNRALLKFVRAALRALSSSSS
B5: il2ra_site2_3nfp_normal_mot_HHH_b1_05627_af2_000000038_0001_43_56_H_._HHH_b2_04930_0001_0000100001_0000001_0 (protein)
chain: SSSSSKAEEYLKVAVELLEELVEEGDEEAARRVTEVIELLAEALNDPELLEEARELLEELESSSS
B6: il2ra_site1_1z92_sap_21_mot_HHH_b1_01765_000000215_0001_19_35_H_._09051a5a5815e8c4a7a718313fa04930_0001_af2_0001_0000600053_0000001_0_0001_af2pred_0001_af2pred (protein)
chain: PEAAERDFERAREAGIPPEAVAKALLKSLRSEGIPPEEVEKIVREVLERLLGDPEEAEEVLERAS
B7: il2ra_site1_1z92_normal_mot_ems_4hM_4976_0002_000000023_0001_48_63_H_._e577cf9893892e11dfbc93bbc029d3b7_0001_0001_0000100007_0000001_0 (protein)
chain: PEERLRELAEELGIPPEELERALENLEREARIPPRNAKIFLKKILELVAEGNPAAEDMLEDLREN
B8: il2ra_site1_2b5i_sap_14_mot_ce5c0e0a9f20e077a206bde56d1879ec_0001_000000005_0001_35_49_H_._HHH_b1_04668_af2_0001_0000500013_0000001_1_0001_af2pred_0001_af2pred_ … (protein)
chain: SSSSSKELHELIRRANELAEKGDDEEAARLLEEAERIARELGSRAARKFIEAALRLLEEDRSSSS
B9: il2ra_site1_3nfp_normal_mot_HHH_b1_01417_af2_000000204_0001_1_19_H_._HHH_eva_0026_af2_0001_0000100002_0000001_0_af2pred_0001_af2pred (protein)
chain: SSDKEHRRLSRIVSKIAAELGLSVEVAKEALHLAFELLKQGISEEEAEKIVERWLEQAAEEQSSS
B10: il2ra_site1_3nfp_normal_mot_0eddeacbb14b769e73e254714f31e2f9_0001_af2_000000052_0001_37_51_H_._HHH_b2_02810_0002_0000200010_0000001_0 (protein)
chain: SSSSDEEVEREVERLLEEAKQIEDSREASKLLEEAWRIAAENKDQELADLIYRVMREIIKSSSSS
B11: il2ra_site2_3nfp_sap_17_mot_HHH_b2_03377_000000137_0001_25_41_H_._HHH_b2_03517_0001_0000700035_0000001_0_0001 (protein)
chain: DLSVRLLRAHALVLGDEELERVIELLAERIKEGDPEARELVLELMQLLMNGDPEEVERLAREILK
B12: il2ra_site2_2erj_sap_19_mot_HHH_b2_08364_000000146_0001_1_19_H_._HHH_b1_02871_0001_0000100001_0000001_0_0001_1 (protein)
chain: SSSSNEKLHELFRLAAELLELVHRGDEEQFEKVFRELEELIEELNSENAEEVLEWLRRHLHSSSS
B13: il2ra_site2_3nfp_normal_mot_HHH_b1_04338_af2_000000107_0001_41_56_H_._HHH_b1_05730_0001_0000100002_0000001_0 (protein)
chain: SSSSSSDVEDLAEALLRRLEKKNPELFEELERLLEELKEEGDPELQLELYAFIAEVLLSSSSSSS
B14: il2ra_site2_2erj_sap_23_mot_HHH_b2_01204_af2_000000051_0001_19_34_H_._HHH_b2_00676_0001_0000100004_0000001_1_0001 (protein)
chain: SSSSSTEEEIEELIRQAEELLRRGDPEEALKLISRAFELAYQLGDPELAARLIELAARIISSSSS
B15: il2ra_site2_2erj_normal_mot_HHH_b2_01353_af2_000000049_0001_23_39_H_._HHH_b1_04436_af2_0001_0000200013_0000001_0 (protein)
chain: SSSSDEIEELLEKAKELLEKGNPEEAEEVLRRASVAAFENRDHEAFAEIAELLRIVAELEASSSS
B16: il2ra_site2_3nfp_sap_16_mot_HHH_b1_07617_000000090_0001_22_38_H_._HHH_b2_07140_0001_0000300012_0000001_0_0001 (protein)
chain: SSSDLEERFEEIYREIEELLKEGDPWKVAQLLLELSKLALEIGDPELARRVLELYKKLKEISSSS
B17: il2ra_site2_3nfp_normal_mot_HHH_b1_00660_af2_000000090_0001_40_57_H_._ems_3hM_3525_af2_0001_0000400016_0000001_1_af2pred_0001_1_af2pred_swapped (protein)
chain: SSSAEEIRKIIAKLILIAAERRDHELFAFVVEVFLEVEELLQKGDEEEAKKVAEEAEEEVRKKSS
B18: il2ra_site2_3nfp_normal_mot_HHH_b2_07083_af2_000000083_0001_42_56_H_._936cac0bedbaeeb6fc45f7bbb6d160e8_0001_0001_0000100007_0000001_0 (protein)
chain: NLEVFELIRELRKRDEELAAALFAVVADLRFKGDPRLEELLREAIELIEEGNPEEAKRVLHEALR
B19: il2ra_site2_3nfp_sap_22_mot_HHH_b1_03745_000000053_0001_41_56_H_._HHH_b1_00387_af2_0001_0000100001_0000001_0_0001 (protein)
chain: SSSSSDEADELLIRAYEALLNGDPEKAEELLEQAEEKARELGDPHLLRQIEEALKTLKNGSSSSS
B20: il2ra_site1_1z92_sap_30_mot_38696baa2df05fb6b55d0053d3ac79c4_0001_1_af2_000000035_0001_34_48_H_._10e1666ff09cdf73719c8a1cce04dea0_0001_0001_0000200022_0000001_0 … (protein)
chain: SSSSNSEERVEFVLREARMARENGNPRAVEWALELAKSLARSRNDEELQKEVEELEKELLSSSSS
B21: il2ra_site2_2erj_normal_mot_HHH_b1_07806_000000211_0001_42_56_H_._HHH_b2_00207_0001_0000400018_0000001_0_af2pred_0001_1_af2pred_swapped (protein)
chain: SSSSSDEEEYRREVEELLEEAKRIPDIREALKLLEEASRVAAELGDDELFHLVDRVARELSSSSS
B22: il2ra_site2_3nfp_normal_mot_HHH_b2_04451_000000238_0001_21_37_H_._HHH_b2_06571_af2_0001_0000400009_0000001_0 (protein)
chain: SSSSDEEERLEELIEELERLEEKGDRVEAFEVLLELSKLALEVGDEEAVRFVLRYFERLQSSSSS
B23: il2ra_site1_2b5i_sap_14_mot_HHH_b2_07442_af2_000000069_0001_1_16_H_._HHH_b2_06599_0001_0000300022_0000001_1_0001_af2pred_dldesign_0_af2pred (protein)
chain: SSSSSSSDPLALIEEAKRLYAEGKRREALEALDRAAKLADAAGDEELEDEIEELAKLISSSSSSS
B24: il2ra_site1_3nfp_sap_10_mot_HHH_b1_07180_af2_000000260_0001_1_19_H_._HHH_b2_01298_0001_0000300012_0000001_0_0001 (protein)
chain: THRRHVAKMIERMAKKLGVPSVEVSVHNGTVHVTLEGTDEAAREAAKAAEHAAEWAGVEFEITFE

Each binder was assayed against il2ra, P01589 (assay: yeast display titration).

Apparent Kd, inactive:
B1 no binding seen
B2 no binding seen
B3 no binding seen
B4 no binding seen
B5 > 7.01 µM
B6 no binding seen
B7 no binding seen
B8 no binding seen
B9 no binding seen
B10 no binding seen
B11 no binding seen
B12 no binding seen
B13 no binding seen
B14 no binding seen
B15 no binding seen
B16 no binding seen
B17 no binding seen
B18 no binding seen
B19 no binding seen
B20 no binding seen
B21 no binding seen
B22 no binding seen
B23 no binding seen
B24 > 0.492 µM

No new results follow: entries from further up.
Apparent Kd, inactive:
B21 no binding seen
B22 no binding seen
